{"sequences": {"note": "Chains of the proteins cited; added tags and fusions are not shown. Lines headed by an entry give the natural chain unless they say otherwise; changes in a name come on top.", "UniProt G4MW61": "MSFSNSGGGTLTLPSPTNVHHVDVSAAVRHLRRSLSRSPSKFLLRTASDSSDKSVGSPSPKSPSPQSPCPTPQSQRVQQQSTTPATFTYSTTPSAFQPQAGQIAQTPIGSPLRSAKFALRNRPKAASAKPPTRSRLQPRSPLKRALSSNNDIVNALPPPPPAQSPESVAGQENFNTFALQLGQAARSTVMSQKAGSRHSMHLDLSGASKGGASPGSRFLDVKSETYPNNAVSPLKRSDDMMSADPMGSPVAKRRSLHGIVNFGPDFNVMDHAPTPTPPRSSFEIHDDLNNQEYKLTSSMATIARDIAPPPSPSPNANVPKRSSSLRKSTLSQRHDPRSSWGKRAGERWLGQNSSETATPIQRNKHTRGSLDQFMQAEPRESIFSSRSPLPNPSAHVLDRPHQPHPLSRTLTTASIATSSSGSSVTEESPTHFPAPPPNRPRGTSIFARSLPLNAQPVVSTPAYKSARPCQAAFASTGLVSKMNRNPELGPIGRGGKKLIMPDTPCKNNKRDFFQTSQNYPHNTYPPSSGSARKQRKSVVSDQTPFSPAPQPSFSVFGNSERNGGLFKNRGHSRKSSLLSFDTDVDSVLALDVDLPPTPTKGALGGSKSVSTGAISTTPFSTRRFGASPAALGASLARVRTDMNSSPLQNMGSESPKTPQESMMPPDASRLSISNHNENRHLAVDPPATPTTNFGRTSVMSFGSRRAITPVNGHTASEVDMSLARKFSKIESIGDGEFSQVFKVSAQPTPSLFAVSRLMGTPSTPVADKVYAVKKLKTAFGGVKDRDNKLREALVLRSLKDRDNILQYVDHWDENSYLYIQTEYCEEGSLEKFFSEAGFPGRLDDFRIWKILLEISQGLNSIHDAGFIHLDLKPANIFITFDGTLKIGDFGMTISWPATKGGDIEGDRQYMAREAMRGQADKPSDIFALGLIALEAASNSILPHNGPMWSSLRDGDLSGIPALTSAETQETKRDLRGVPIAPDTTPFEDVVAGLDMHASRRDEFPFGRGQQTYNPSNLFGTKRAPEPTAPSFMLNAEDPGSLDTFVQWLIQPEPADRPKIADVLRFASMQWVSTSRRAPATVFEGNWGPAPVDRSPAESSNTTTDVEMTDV", "UniProt G4N374": "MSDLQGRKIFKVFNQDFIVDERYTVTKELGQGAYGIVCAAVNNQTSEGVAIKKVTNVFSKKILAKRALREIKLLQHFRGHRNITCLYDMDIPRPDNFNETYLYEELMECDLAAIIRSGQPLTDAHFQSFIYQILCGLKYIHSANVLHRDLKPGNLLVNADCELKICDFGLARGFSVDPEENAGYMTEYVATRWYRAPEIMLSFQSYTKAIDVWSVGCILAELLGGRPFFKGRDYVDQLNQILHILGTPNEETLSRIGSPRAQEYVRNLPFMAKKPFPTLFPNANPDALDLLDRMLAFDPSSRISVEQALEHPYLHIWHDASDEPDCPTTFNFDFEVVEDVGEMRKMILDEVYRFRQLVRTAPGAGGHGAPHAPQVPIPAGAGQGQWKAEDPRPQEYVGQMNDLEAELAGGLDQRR"}, "source": "paper PMC10775494", "target": "MoSwe1-YFPN (M. oryzae) (UniProt G4MW61)", "assay": "split reporter", "note": "No constants are given. Whether binding was seen depends on the method and setting. Binding seen in cells or lysates may run through a third protein. Binding can be weak; no strength is given."}
{"substance": "MoMps1-YFPC (from UniProt G4N374 1-415)", "values": [{"measurement": "binding", "value": "binds"}]}
